# According to PubChem BioAssay AID2685 (National Center for Advancing Translational Sciences (NCATS), 2010):
# The other results are listed elsewhere or left out. Further columns of the screen follow, without active or inactive calls. Most of these compounds were active or inconclusive in the main read-out, so they are no random draw. Words in brackets tell the shape of the fitted curve; partial curves, single points and poor fits give uncertain potencies.
# Assay: qHTS Assay for Lipid Storage Modulators in Drosophila S3 Cells;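 as to cell number change: cells counted by Cell Tracker Red CMTPX staining in the red channel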
# Conditions: BODIPY lipid droplet fluorescence, 18-24 h; for cell number change: measured here: cell count max response, cells fed with added oleic acid
# Summary of the method: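 Drosophila S3 cells got compounds at several concentrations plus oleic acid (400 uM solution). Laser-scanning cytometry with 488 nm excitation read lipid droplets at 500-530 nm and cells at 575-640 nm. Percent activity was relative to 20 uM Triacsin C.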
# [1] = measured here: lipid fluorescence (Fed channel) AC50, cells fed with added oleic acid
SMILES,cell number change [%],AC50 [1],"AC50 (measured here: cell number channel AC50, cells fed with added oleic acid)"
CC(c1ccccc1)N1C(=O)c2ccc(C(=O)Nc3ccc(Br)cc3C(=O)O)cc2C1=O (stereo not drawn),14.6,"29.1 µM [rising, single point]",
O=C(Nc1ccc(C(=O)O)cc1)/C(=C\C=C\c1ccccc1)NC(=O)c1cccc(Br)c1,-20.7,,"2.91 µM [rising, partial curve, poor fit]"
CCOc1cc(/C=C2\C(=O)N(c3cccc(C(=O)O)c3)N=C2C(F)(F)F)ccc1OCC(=O)Nc1ccccc1OC,-20.8,"29.1 µM [falling, single point]",
CCCOc1ccc(C2C(C(=O)c3cc4ccccc4o3)=C(O)C(=O)N2c2cc(C)on2)cc1 (stereo not drawn),-1.49,"20.6 µM [rising, single point]",
